PubChem BioAssay AID1224830 – NIAID | 2016
This is a random part of about 18,000 reagents tested. Over the whole deposit, about 2,900 (16%) were called active. 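Calls are made per well; low scores hint the gene aids the LPS response, high scores that it dampens it.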 Entries without a mark were called inactive. Repeated entries: four replicate wells of each siRNA pool. No sequences are given here.

- Screen: 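Host factors that control LPS-induced TNF expression in human macrophages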 (primary screen)
- System: human THP-1 monocytic leukaemia cells, TNF dual-luciferase reporter clone, PMA-differentiated to macrophage-like cells
- Reagent: siRNA pool against human genes, 50 nM
- Timing: LPS for 4 h, given about 3 days after siRNA transfection
- Challenge: bacterial LPS (TLR4 ligand), 10 ng/ml
- Detection: 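Ratio of firefly to renilla light, scaled to the plate median and expressed as a robust z-score per replicate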
- Direction: TNF reporter robust z-score: higher = stronger TNF reporter response to LPS
- Hit rule: 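Each well counts as active if its z-score is over 2.8 or under -1.5; controls are left without a call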

| Gene | TNF reporter robust z-score |
| --- | --- |
| ABHD6 | 0.92 |
| ABHD6 | -0.06 |
| ABHD6 | 0.2 |
| ABHD6 | 1.7 |
| ARRDC4 | -1.38 |
| ARRDC4 | -0.27 |
| ARRDC4 | -0.46 |
| ARRDC4 | -0.91 |
| RASEF | -0.21 |
| RASEF | 0.07 |
| RASEF | -0.04 |
| RASEF | -0.32 |
| ALG10 | 0.59 |
| ALG10 | 0.13 |
| ALG10 | 1.1 |
| ALG10 | 1.13 |
| KNCN | -1.57 (active) |
| KNCN | -1.72 (active) |
| KNCN | -1.58 (active) |
| KNCN | -1.51 (active) |
| TMEM200C | -0.13 |
| TMEM200C | -0.4 |
| TMEM200C | -1.04 |
| TMEM200C | 0.95 |
| UBE2I | -1.26 |
| UBE2I | -1.01 |
| UBE2I | -1.18 |
| UBE2I | -0.75 |
| ADAM29 | -0.31 |
| ADAM29 | -0.37 |
| ADAM29 | 1.6 |
| ADAM29 | -0.19 |
| LY96 | -1.73 (active) |
| LY96 | -1.77 (active) |
| LY96 | -1.86 (active) |
| NBR1 | -0.15 |
| NBR1 | 0.69 |
| NBR1 | -0.34 |
| NBR1 | 0.01 |
| TAFAZZIN | 0.71 |
| TAFAZZIN | -0.16 |
| TAFAZZIN | 0.62 |
| TAFAZZIN | 1 |
| NDUFS5 | 1.75 |
| NDUFS5 | 1.45 |
| NDUFS5 | 0.91 |
| NDUFS5 | 1.65 |

Records above whose target name begins with R or r:
| Gene | TNF reporter robust z-score |
| --- | --- |
| RASEF | -0.21 |
| RASEF | 0.07 |
| RASEF | -0.04 |
| RASEF | -0.32 |
